According to patent US20240327456A1 (UNIVERSITAT DE BARCELONA, priority 2021, published 2024):

Test: general procedure: Fmoc solid-phase peptide synthesis; 2-chlorotrityl chloride resin
Details: whole synthesis, 220 nm, scale 100 μmol

(S)-N-(3-(((S)-3-amino-1-((S)-4-methyl-1-oxo-1-(pyrrolidin-1-yl) pentan-2-ylamino)-1-oxopropan-2-yl)(methyl)amino)-3-oxopropyl)-3-(biphenyl-4-yl)-2-(2,2-diphenylacetamido)-N-methylpropanamide
final HPLC purity: 95%
